Measurements reported in PubChem BioAssay AID743454 (Peter MacCallum Cancer Centre, 2014).
The whole screen tested about 18,000 reagents; shown is a part drawn at random. 450 of them (2.5%) were called active. 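Single biological run; no consistent viability z cut-off exists, so the class columns, not z-scores, define the calls.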 Reagent sequences are not shown.

Test: 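Knock-downs lowering viability or raising caspase 3/7 activity in vorinostat-treated resistant cells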 (primary screen)
System: human HCT116-VR colon cancer cells, selected for vorinostat resistance
Knock-down reagent: siRNA pool against human genes, 40 nM siRNA pool
Timing: vorinostat for 24 h, read-out about 72 h after transfection
Challenge: vorinostat at 2.5 µM final
Measurement: 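Cell viability by CellTiter-Fluor and caspase 3/7 activity by luminescence, each scaled to mock wells per plate, duplicates averaged, then robust z-scored over all plates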
Reading the numbers: viability robust z-score: higher = more viable cells than screen typical; caspase robust z-score: higher = more caspase 3/7 activity than screen typical
Rule for the call: 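a knock-down is a hit when classed RV1 or RV2 for lowered viability, or CA1 or CA2 for caspase activation; those lethal without drug were dropped; hits were retested singly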

With knock-down of PNMA8B the results were viability hit class no change; caspase hit class no change; viability robust z-score -1.05; caspase robust z-score 0.32; inactive.
Against ZNF334 the deposit lists viability hit class no change; caspase hit class no change; viability robust z-score 0.29; caspase robust z-score -0.71; inactive.
Depletion of BUB1 resulted in: viability hit class no change; caspase hit class no change; viability robust z-score 0.62; caspase robust z-score 0.44; inactive.
Against DOCK5, the values are viability hit class no change; caspase hit class no change; viability robust z-score -1.02; caspase robust z-score -0.02; inactive.
DRGX showed viability hit class no change; caspase hit class no change; viability robust z-score -0.9; caspase robust z-score -0.33; inactive.
Against TRIM14 the deposit lists viability hit class no change; caspase hit class no change; viability robust z-score 1.06; caspase robust z-score -0.43; inactive.
PHAF1 scored viability hit class no change; caspase hit class no change; viability robust z-score 0.34; caspase robust z-score -0.1; inactive.
With knock-down of SCAF11 the results were viability hit class no change; caspase hit class no change; viability robust z-score 0.72; caspase robust z-score 1.22; inactive.
For TAS2R41, the values are viability hit class no change; caspase hit class no change; viability robust z-score 0.1; caspase robust z-score -0.64; inactive.
MIGA1 showed viability hit class no change; caspase hit class no change; viability robust z-score 0.08; caspase robust z-score -0.22; inactive.
FNDC3A scored viability hit class no change; caspase hit class no change; viability robust z-score 1.34; caspase robust z-score 0.53; inactive.
Against FANCM the deposit lists viability hit class no change; caspase hit class no change; viability robust z-score -0.76; caspase robust z-score -1.06; inactive.
Knock-down of SLC35E2A gave: viability hit class no change; caspase hit class no change; viability robust z-score 0.03; caspase robust z-score 0.11; inactive.
Knock-down of GDF11 came out at: viability hit class no change; caspase hit class no change; viability robust z-score 0.35; caspase robust z-score 0.7; inactive.
